Source: patent US20230338553A1
Results are given in words; binding and its absence hold for the method and conditions named. Some entries that bind do so weakly or less than the wild type.

Chains of the proteins cited; added tags and fusions are not shown. Residues count along the entry.
UniProt P02701, residues 25-152: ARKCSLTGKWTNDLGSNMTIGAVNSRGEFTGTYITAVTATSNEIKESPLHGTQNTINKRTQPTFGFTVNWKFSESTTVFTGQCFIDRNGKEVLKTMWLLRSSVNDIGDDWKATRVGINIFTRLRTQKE

T1: Prostate Stem Cell Antigen (PSCA) (human) (UniProt O43653)
T1 sequence (looked up): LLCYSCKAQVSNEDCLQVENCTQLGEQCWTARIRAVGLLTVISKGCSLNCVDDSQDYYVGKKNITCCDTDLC


What was measured:
[1] = molecular target: avidin (UniProt P02701); test: non-reducing SDS-PAGE and Western blot of scFv/avidin mixtures
[2] = molecular target: avidin (UniProt P02701); test: non-reducing SDS-PAGE and Western blot of scFv/avidin mixtures (FIG. 11 legend)
[3] = molecular target: avidin (UniProt P02701); test: non-reducing SDS-PAGE and Western blot of scFv/avidin mixtures (FIG. 12 legend)
[4] = molecular target: T1, Prostate Stem Cell Antigen (PSCA) (human); test: flow cytometry titration on 293T^PSCA cells, KD calculation

Row | binding [1] | binding [2] | binding [3] | binding [4] | Binder
1 | binds | binds | – | – | scFv(MR1.1)-P-BAP (scFv, mono-biotinylated at the C-terminal P-BAP (PSTCD biotin acceptor domain)) scFv: DAAQPARRARRTKLGTELGSHMQVKLQQSGGGLVKPGASLKLSCVTSGFTFRKFGMSWVRQTSDKRLEWVASISTGGYNTYYSDNVKGRFTISRENAKNTLYLQMSSLKSEDTALYYCTRGYSPYSYAMDYWGQGTTVTVSSSGGGSGGGGSGGGGSDIELTQSPASLSVATGEKATIRCMTSTDIDDDMNWYQQKPGEPPKFLISEGNTLRPGVPSRFSSSGTGTDFVFTIENTLSEDVGDYYCLQSWNVPLTFGDGTKLEITKLSSKLKVTVNGTAYDVDVDVDKSHENPMGTILFGGGTGGAPAPAAGGAGAGKAGEGEIPAPLAGTVSKILVKEGDTVKAGQTVLVLEAMKMETEINAPTDGKVEKVLVKERDAVQGGQGLIKIGDLELIEGSSGPEQKLISEEDLNSAVDHHHHHH
2 | binds | – | binds | – | scFv(MR1.1)-BAP (scFv, mono-biotinylated at the BAP (Bio-Tag derived)) scFv: DAAQPARRARRTKLGTELGSHMQVKLQQSGGGLVKPGASLKLSCVTSGFTFRKFGMSWVRQTSDKRLEWVASISTGGYNTYYSDNVKGRFTISRENAKNTLYLQMSSLKSEDTALYYCTRGYSPYSYAMDYWGQGTTVTVSSSGGGSGGGGSGGGGSDIELTQSPASLSVATGEKATIRCMTSTDIDDDMNWYQQKPGEPPKFLISEGNTLRPGVPSRFSSSGTGTDFVFTIENTLSEDVGDYYCLQSWNVPLTFGDGTKLEITMSGLNDIFEAQKIEWHEGAPSSGGESSGSGPEQKLISEEDLNSAVDHHHHHH
3 | binds | – | binds | binds | scFv(h-AM1)-BAP (scFv, mono-biotinylated at the C-terminal BAP (Bio-Tag)) scFv: DAAQPARRARRTKLGTELGSEVQLLESGGGLVQPGGSLRLSCVASGFTFSSYTMSWVRQAPGKGLEWVSYIHNGGGHTYYADSVKGRFTISRDNSKNTLYLQMNSLRAEDTAVYYCTRRMYYGNSHWYFDVWGAGTRVTITSAKTTPPSVYGGGGSGGGGSGGGGSTNSDIQMTQSPSSLSASVGDRVTITCRTSQSISNYLNWYQQKPGKAPKLLIYYTLKLNSGVPSRFSGSGSGTDFTLTISSLQPEDFATYYCQQSKTLPWTFGGGTKLEIKRADAAPTVSGPEQKLISEEDLNSAVDMSGLNDIFEAQKIEWHEGAPSSHHHHHH
